Data from PubChem BioAssay AID485314 (National Center for Advancing Translational Sciences (NCATS), 2010).
Out of some 340,000 compounds screened, about 4,500 (1.3%) were called active. The inconclusive results got no clear call from the source; some entries with a clear call stand among them for comparison. Calls come from the whole dose curve; as a rule, active = well fitted inhibition curve with a large enough effect; inconclusive = small, poorly fitted or top-dose-only effect, or another doubt; inactive = no such curve, though single readings can be large or run the other way. Potencies beside an inconclusive call are fits to weak or partial responses and may not hold up.

biological target: DNA polymerase beta (Homo sapiens) (UniProt P06746); assay: qHTS Assay for Inhibitors of DNA Polymerase Beta; details: Pol beta primer extension/strand displacement, fluorescence kinetic; series mostly up to 114 µM
Summary of the method: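 10 nM enzyme + cpd, 15 min RT; start with substrate 50 nM final; read 0 min and after 10 min RT. Corrected, normalized data; 4-parameter Hill curve fit.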
Potency is the fitted concentration of half-maximal effect.

Potency, active:
CCOc1ccc(NS(=O)(=O)c2ccc3[nH]cc(C(=O)NCc4ccccc4)c(=O)c3c2)cc1 11.2 µM

Potency, inconclusive:
COc1cccc2cc(C(N)=O)/c(=N\NC(=O)c3ccccc3)oc12 39.8 µM [inhibitor, partial curve], CC(C)C(c1nnnn1C(C)(C)C)N1CCN(Cc2cccnc2)CC1 (stereo not drawn) 89.1 µM [inhibitor, single point], CCCCC(=O)OC1=C(C(=O)c2ccccc2)N(C)S(=O)(=O)c2ccccc21 22.4 µM [inhibitor, single point], O=C(Nc1ccc(F)cc1F)c1cnn(-c2ccc(F)cc2)c1-n1cccc1 89.1 µM [inhibitor, single point], COc1cccc(NC(=O)CN2C(=O)C3(OCCCO3)c3ccccc32)c1 22.4 µM [inhibitor, partial curve, poor fit], O=C(CCn1c(=O)c2cccn2c2ccccc21)Nc1ccc(F)cc1 89.1 µM [inhibitor, single point], CCOC(=O)C1(C)NC(c2ccc(OC)c(OC)c2)C2C(=O)N(CC)C(=O)C21 (stereo not drawn) 79.4 µM [inhibitor, single point], COc1ccc(NC(=O)c2sc3nc4c(cc3c2N)CCCCCC4)cc1OC 3.16 µM [inhibitor, partial curve], CC(C)NC(=O)NC(=O)CSc1ccccc1F 1.78 µM [inhibitor, full curve], CCc1ccc(NC(=O)c2cccc(NC3=NC4CS(=O)(=O)CC4S3)c2)cc1 (stereo not drawn) 89.1 µM [inhibitor, single point], CN1C(=O)SC(Nc2ccc(F)cc2)C1=O (stereo not drawn) 89.1 µM [inhibitor, single point], N/C(Cc1ccc(Cl)c(Cl)c1)=N\OC(=O)c1ccc(Br)o1 35.5 µM [inhibitor, full curve], O=C(Nc1cc(F)ccc1F)c1cc2nc(-c3ccco3)cc(C(F)(F)Cl)n2n1 31.6 µM [inhibitor, partial curve], COC(=O)c1ccc(NC(=O)c2cn(-c3ccccc3)nc2-c2ccncc2)cc1 50.1 µM [inhibitor, partial curve]

Potency, inactive:
COc1ccc(NC(=O)C2CCC(=O)N2C(=O)OCc2ccccc2)cc1 (stereo not drawn), O=C(O)c1cc([N+](=O)[O-])ccc1NCCO, O=C(COc1ccc(Cl)cc1)NCCc1csc(-c2ccc(F)cc2)n1
